Assay results published in publication PMC12687454.
Results are given in words; binding and its absence hold for the method and conditions named. For some of these results: Binding seen in cells or lysates may run through a third protein. Some entries that bind do so weakly or less than the wild type. For some of these results: Sequences can lack the tags named with a protein. One block for each binder: values may come before it.

Assays:
[1] = molecular target: T1, Pim1 (Lon protease homolog of yeast), Gal4 DNA-binding domain fusion from pGBD-C1-PIM1 (S. cerevisiae) (UniProt P36775); test: two-hybrid; Gal4 system in strain PJ69-4A; Pim1 in pGBD-C1, Pam16 or Pam18 in pGAD-C1; serial dilutions spotted on minimal media, 30°C, 2 days; growth without histidine, no growth without adenine
T1 sequence: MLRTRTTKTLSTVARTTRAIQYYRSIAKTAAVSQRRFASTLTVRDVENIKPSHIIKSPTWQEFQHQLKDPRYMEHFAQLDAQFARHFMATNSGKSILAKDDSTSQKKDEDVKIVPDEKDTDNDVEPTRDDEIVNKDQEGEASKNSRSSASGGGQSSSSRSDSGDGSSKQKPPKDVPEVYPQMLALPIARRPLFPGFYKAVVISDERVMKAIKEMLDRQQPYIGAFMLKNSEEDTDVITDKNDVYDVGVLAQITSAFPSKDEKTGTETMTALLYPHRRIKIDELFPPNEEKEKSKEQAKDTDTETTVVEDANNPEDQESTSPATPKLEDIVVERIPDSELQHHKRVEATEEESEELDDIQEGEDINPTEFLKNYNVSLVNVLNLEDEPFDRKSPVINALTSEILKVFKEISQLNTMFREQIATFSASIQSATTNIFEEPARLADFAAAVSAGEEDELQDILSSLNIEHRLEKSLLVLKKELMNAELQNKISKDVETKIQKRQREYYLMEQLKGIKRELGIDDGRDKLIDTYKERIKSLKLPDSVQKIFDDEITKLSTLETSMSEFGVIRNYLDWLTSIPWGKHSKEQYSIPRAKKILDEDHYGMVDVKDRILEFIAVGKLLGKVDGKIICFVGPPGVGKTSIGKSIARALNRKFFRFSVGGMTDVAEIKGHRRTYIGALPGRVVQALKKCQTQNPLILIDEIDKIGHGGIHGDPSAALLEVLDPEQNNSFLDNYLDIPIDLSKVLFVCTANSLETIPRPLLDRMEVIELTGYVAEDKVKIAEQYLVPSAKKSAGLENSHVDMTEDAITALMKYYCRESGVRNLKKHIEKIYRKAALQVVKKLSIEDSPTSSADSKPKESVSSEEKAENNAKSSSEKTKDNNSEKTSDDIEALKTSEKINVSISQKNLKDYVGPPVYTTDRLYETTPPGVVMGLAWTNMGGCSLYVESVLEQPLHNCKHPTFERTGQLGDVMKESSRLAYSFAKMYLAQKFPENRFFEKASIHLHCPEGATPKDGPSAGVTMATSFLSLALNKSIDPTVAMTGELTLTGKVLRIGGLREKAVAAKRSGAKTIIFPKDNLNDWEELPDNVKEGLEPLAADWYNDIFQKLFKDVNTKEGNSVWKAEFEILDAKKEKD

[2] = molecular target: T2, Pim1 (Lon protease homolog of yeast), endogenous (S. cerevisiae (endogenous in WT yeast cells)) (UniProt P36775); test: co-IP; 1 mg lysate of WT yeast cells, precleared, Pim1 antibody overnight at 4°C, Protein A/G PLUS-Agarose beads; blots with Pim1, Pam16 and Pam18 antibodies; pim1Δ cells as control
T2 sequence: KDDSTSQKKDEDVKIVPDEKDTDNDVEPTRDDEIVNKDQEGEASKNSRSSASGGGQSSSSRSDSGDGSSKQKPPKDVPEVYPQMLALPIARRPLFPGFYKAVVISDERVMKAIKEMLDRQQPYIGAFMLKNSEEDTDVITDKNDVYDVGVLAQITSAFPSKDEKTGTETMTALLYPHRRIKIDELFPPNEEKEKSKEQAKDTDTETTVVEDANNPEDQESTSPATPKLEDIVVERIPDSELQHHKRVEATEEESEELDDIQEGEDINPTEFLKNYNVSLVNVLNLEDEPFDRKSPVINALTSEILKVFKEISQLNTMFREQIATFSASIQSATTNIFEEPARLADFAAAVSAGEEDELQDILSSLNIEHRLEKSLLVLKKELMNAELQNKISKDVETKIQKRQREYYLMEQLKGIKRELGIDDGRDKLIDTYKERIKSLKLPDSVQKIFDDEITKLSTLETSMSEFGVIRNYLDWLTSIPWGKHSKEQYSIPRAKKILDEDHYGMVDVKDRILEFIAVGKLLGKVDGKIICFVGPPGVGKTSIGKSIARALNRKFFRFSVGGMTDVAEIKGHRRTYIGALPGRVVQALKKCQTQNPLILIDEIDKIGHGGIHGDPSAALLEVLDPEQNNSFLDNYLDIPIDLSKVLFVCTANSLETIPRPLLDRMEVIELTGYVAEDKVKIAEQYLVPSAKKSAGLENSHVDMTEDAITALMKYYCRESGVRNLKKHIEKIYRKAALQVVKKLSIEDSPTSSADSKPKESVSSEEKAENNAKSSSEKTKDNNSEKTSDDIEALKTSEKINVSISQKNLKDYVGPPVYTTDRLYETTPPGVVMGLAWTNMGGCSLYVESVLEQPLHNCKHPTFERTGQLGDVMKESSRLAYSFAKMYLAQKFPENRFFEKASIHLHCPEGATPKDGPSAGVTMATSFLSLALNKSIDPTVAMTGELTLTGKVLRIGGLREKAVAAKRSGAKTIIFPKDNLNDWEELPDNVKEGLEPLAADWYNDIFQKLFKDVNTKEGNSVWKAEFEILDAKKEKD

B3: Pam16, Gal4 activation domain fusion from pGAD-C1-PAM16 (protein, UniProt P42949 1-149)
chain: MAHRAFIQVIITGTQVFGKAFAEAYRQAASQSVKQGATNASRRGTGKGEYGGITLDESCKILNIEESKGDLNMDKINNRFNYLFEVNDKEKGGSFYLQSKVYRAAERLKWELAQREKNAKAKAGDASTAKPPPNSTNSSGADNSASSNQ
binding [1]: binds weakly

B4: Pam16, endogenous (protein, UniProt P42949 1-149)
chain: B3 chain
binding [2]: binds

The remaining lines, values ahead:

binding [1]: binds weakly
B1: Pam18, Gal4 activation domain fusion from pGAD-C1-PAM18 (protein, UniProt Q07914 1-168)
chain: MSSQSNTGNSIEAPQLPIPGQTNGSANVTVDGAGVNVGIQNGSQGQKTGMDLYFDQALNYMGEHPVITGFGAFLTLYFTAGAYKSISKGLNGGKSTTAFLKGGFDPKMNSKEALQILNLTENTLTKKKLKEVHRKIMLANHPDKGGSPFLATKINEAKDFLEKRGISK

binding [2]: binds
B2: Pam18, endogenous (protein, UniProt Q07914 1-168)
chain: B1 chain
